These results are taken from PMC10303925.

Where a chain is given by its changes, count along the chain named. These are yes or no findings as the source states them, for the method shown. For part of these data: Binding seen in cells or lysates may run through a third protein. Some results given as binding are weak or reduced against the parent protein; the word gives no strength. For part of these data: Sequences can lack the tags named with a protein.

Test [1] deals with T1, RAB27A(Gln78Leu/Cys219Ala/Cys221Ala) (WT in the yeast two-hybrid assay) (mouse) (UniProt Q9ERI2).
T1 sequence: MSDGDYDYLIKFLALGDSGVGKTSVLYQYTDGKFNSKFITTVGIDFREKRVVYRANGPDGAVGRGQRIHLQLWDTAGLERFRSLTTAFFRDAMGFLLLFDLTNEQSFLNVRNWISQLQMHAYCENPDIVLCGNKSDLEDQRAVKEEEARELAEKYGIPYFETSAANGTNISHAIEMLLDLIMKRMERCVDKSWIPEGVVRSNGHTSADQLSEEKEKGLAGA
The test is described as follows: two-hybrid; yeast cells with pGBD-C1-RAB27A(Gln78Leu/Cys219Ala/Cys221Ala) (WT or Asp7Tyr) and pAct2-MLPH/SLAC2-A-SHD or pACT2-SLP2-A-SHD; growth on selection medium SC-AHLW for four days (growth medium SC-LW two days).

The target of test [2] is T2, RAB27A(Asp7Tyr/Gln78Leu/Cys219Ala/Cys221Ala) (mouse) (UniProt Q9ERI2).
T2 sequence: T1 sequence with D7Y
Described as above.

Another test deals with T3, FLAG-RAB27A (WT) (mouse) (UniProt Q9ERI2).
T3 sequence: T1 sequence with L78Q, A219C, A221C
Briefly: co-IP; COS-7 cells expressing T7-MUNC13-4 and FLAG-RAB27A (WT or Asp7Tyr); anti-FLAG M2 magnetic beads; immunoblot with HRP-conjugated anti-T7 and anti-FLAG. A general note: In western blotting, separated proteins are transferred to a membrane and probed.

B1: SLP2-A-SHD (amino acids 1-87) (domain or fragment, UniProt Q99N50-1 1-87)
chain: MIDLSFLTEEEQDAILKVLQRDAALKRAEEERVRHLPEKIKDDQQLKNMSGQWFYEAKAKRHRDKIHGADIIRASMRRKKLPAAAEQ
As for B1, the binding result in test [1] and in test [2] was “binds” in each case.

B2: T7-MUNC13-4 (protein, UniProt B2RUP2 1-1085)
chain: MATHLSHPQRRPLLRQAIKIRRRRVRDLQDPPPQATQEVQVQSHHFSPEERDLLYEEALYTVLHRLGQPEPNHVKEASELLSYLQEAFQVQPEEHQQMLRRVRELEKPVFCLKATVKQAKGILGKDVSGFSDPYCLLGIEQKVGVAEGSPVSRRRQKAVVKHTIPEEETHRTQVKSQTLNPVWDETFILEFEDIANASFHLDMWDLDTVESVRQKLGELTDLHGLRRIFKEARKDKGQDDFLGNVVLRLQDLRCREDQWFPLEPCTETYPDRGQCHLQFQFIHKRRATAASRSQPSYTVHFHLLQQLVSHEVTQHQAGSTSWDASLSPQAVTILFLHATQKDLSDFHQSMAQWLAYSRLYQSLEFPSSCLLHPITSIEYQWIQGRLKAEQREELATSFTSLLAYGLSLIRKFRSVFPLSVSDSPSRLQSLLRVLVQMCKMKAFGELCPDSAPLSQLVSEALRMGTVEWFHLMQQHHQPMVQGILEAGKALLNLVQDVMGDLYQCRRTWNKIFHNVLKIDLFSMAFLELQWLVAKRVQDHTVAAGNLVSPDIGESLFQLYVSLKELCQLGPVPSDSREVLALDGFHRWFQPAIPSWLQKTYSVALERVQRAVQMDTLVPLGELTKHSTSAVDLSTCFAQISHTARQLDWPDPEEAFMITVKFVEDTCRLALVYCSLIKARARELSAVQKDQSQAADMLCVVVNNMEQLRLIIDKLPTQLAWEALEQRVGAVLEEGQLQNTLHAQLQGALAGLGHEIRTGVRTLAEQLEVGIATHIQKLIGVKESVLPEDAILPLMKFLEVKLCYMNTNLVQENFSSLLTLLWTHTLTVLVEVASSQRSSSLASGRLKVALQNLEVCFHAEGCGLPPEALHTDTFQALQNDLELQAASSRELIQKYFCSRIQQQAETTSERLGAVTVKVSYRASEQRLRVELLSASSLLPLDSNGSSDPFVQLTLEPRHEFPEVAPRETQKHKKELHPLFDETFEFLVPAEPCQKAWACLLLTVLDHDRLGADDLEGEAFLPLCRVPGLTDCAEPGEAPQMRLPLTYPAPNGDPILRLLESRKGDREAQAFVKLRRQRAKQASQHAP
As to B2, in the test with FLAG-RAB27A (WT) (mouse), the binding entry is “binds”.
